Reference: PMC12307761
Results are given in words; binding and its absence hold for the method and conditions named. Binding seen in cells or lysates may run through a third protein. Some results given as binding are weak or reduced against the parent protein; the word gives no strength. Where a sequence is shown, tags or fusion partners need not be part of it.

The chains behind the UniProt entries cited, without tags or fusion partners.
UniProt O60260: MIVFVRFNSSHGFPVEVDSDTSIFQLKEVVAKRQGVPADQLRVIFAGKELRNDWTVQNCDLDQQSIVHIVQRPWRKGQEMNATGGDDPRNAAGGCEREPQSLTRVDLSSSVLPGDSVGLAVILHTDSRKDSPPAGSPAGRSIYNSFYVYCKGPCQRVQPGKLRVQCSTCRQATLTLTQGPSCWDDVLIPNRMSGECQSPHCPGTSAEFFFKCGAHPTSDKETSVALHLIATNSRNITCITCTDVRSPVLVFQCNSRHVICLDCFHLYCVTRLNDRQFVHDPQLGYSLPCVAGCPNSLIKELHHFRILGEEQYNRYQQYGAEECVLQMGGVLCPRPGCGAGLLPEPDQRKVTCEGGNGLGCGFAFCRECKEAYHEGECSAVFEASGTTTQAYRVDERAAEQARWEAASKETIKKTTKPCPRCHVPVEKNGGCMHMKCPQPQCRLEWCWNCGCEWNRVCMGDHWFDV

How the values were obtained:
[1] = molecular target: T1, ANKZF1-GFP (Ankyrin repeat and Zinc Finger Peptidyl tRNA Hydrolase 1, C-terminally GFP tagged) (human) (UniProt Q9H8Y5); test: condition: only unstressed control cells (Mito-BFP expression, without PMD or CCCP); co-IP; as a1, but unstressed control cells expressing Mito-BFP (no PMD, no CCCP); IP with anti-GFP antibody on Protein A/G Sepharose beads
T1 sequence: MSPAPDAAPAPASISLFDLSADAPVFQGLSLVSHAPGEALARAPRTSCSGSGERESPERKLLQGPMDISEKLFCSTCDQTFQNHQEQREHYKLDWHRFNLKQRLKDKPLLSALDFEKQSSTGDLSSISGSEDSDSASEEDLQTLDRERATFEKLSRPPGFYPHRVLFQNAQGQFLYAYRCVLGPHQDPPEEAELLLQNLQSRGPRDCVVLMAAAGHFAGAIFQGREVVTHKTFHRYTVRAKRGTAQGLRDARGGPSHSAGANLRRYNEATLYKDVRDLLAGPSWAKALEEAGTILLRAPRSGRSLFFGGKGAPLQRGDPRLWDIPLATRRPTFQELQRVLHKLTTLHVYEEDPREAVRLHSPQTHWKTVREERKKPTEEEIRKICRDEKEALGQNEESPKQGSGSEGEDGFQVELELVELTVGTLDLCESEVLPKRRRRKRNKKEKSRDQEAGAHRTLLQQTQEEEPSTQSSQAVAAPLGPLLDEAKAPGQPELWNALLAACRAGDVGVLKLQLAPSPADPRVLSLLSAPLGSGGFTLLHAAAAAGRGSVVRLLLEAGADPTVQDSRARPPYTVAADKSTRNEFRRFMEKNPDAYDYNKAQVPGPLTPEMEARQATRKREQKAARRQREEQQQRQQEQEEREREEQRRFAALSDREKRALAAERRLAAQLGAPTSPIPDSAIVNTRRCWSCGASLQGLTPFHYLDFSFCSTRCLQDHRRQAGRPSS

[2] = molecular target: T1, ANKZF1-GFP (Ankyrin repeat and Zinc Finger Peptidyl tRNA Hydrolase 1, C-terminally GFP tagged) (human); test: co-IP; HEK293T cells transfected with ANKZF1-GFP and mCherry-Parkin, with mitochondrial stress by Mito-PMD expression or CCCP treatment; IP with anti-GFP antibody (pre-immune antisera as control) on Protein A/G Sepharose beads; blots probed with anti-GFP, anti-Parkin and anti-LC3

Q: Which binding [1] does the source give for “mCherry-Parkin (from UniProt O60260 1-465)” here?
A: The binding was “no binding”.

Q: What about the binding [2] of the same substance?
A: Its binding is “binds”.
